# Laboratory results from PubChem BioAssay AID504467 (National Center for Advancing Translational Sciences (NCATS), 2011).
# Screen size: about 330,000 compounds; about 7,700 (2.3%) were called active. The inconclusive results got no clear call from the source; some entries with a clear call stand among them for comparison. Calls come from the whole dose curve; as a rule, active = well fitted inhibition curve with a large enough effect; inconclusive = small, poorly fitted or top-dose-only effect, or effect the other way; inactive = flat fitted curve, though single readings scatter. A potency beside an inconclusive call is a rough fit, not a confirmed value.
# Assay: qHTS screen for small molecules that inhibit ELG1-dependent DNA repair in human embryonic kidney (HEK293T) cells expressing luciferase-tagged ELG1; note: nearly all actives have a fitted effect of over 55% in size
# Details: HEK293T ELG1-luciferase reporter, luminescence, 16 h, DNA damage induced by 5-fluorouridine; activity change, negative = inhibition: at 46.1 µM (top of the series)
# Outline: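 In this reporter screen, reduction of luminescence relative to DMSO vehicle indicated activity. Compounds and 5-fluorouridine were added together to 2,000 cells per well, incubated for 16 hr at 37 °C, then developed with ONE-Glo.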
# % is set by controls: 0 for no effect and ±100 for the full control effect; potency is the fitted concentration of half-maximal effect.
SMILES,Potency,"activity change, negative = inhibition"
COC(CNC(=O)C1CCN(C(=O)c2cc3oc(C)cc3n2Cc2c(F)cccc2Cl)CC1)OC,"inconclusive: 29.1 µM [inhibitor, single point]",
O=C1CC(c2ccco2)CC2=C1C=Nc1ccccc1N2 (configuration not stated),"inconclusive: 18.4 µM [inhibitor, single point]",
Cc1ccc(NC(=S)NCc2ccc3[nH]c4c(c3c2)CCCC4)cc1,"inconclusive: 0.259 µM [activator, full curve, poor fit]",
Cc1ccc(C(C(=O)NCc2ccco2)N(C(=O)CNC(=O)c2cccs2)c2ccc(C)cc2)cc1 (configuration not stated),"inconclusive: 14.6 µM [activator, single point]",
COc1ccc(NC(=O)c2ccc(-c3ccccc3Cl)o2)cc1,"inconclusive: 23.1 µM [activator, partial curve]",
CC(=O)c1cccc(NC(=O)CN2C(=O)NC(C)(C)C2=O)c1,"inconclusive: 29.1 µM [activator, single point]",
O=C(/C=C/c1ccco1)Nc1cccc(S(=O)(=O)N2CCOCC2)c1,,inactive: 15.9%
Cc1cc(C(=O)CCl)c(C)n1CCc1ccc(F)cc1,,inactive: -0.291%
CS(=O)(=O)N(CC(=O)N1CCN(c2ccc(F)cc2)CC1)C1CCCCC1,"inconclusive: 29.1 µM [activator, single point]",
Cc1ccc(O)c(C(=O)c2cnc3c(c2)COc2ccc(C)cc2-3)c1,"inconclusive: 29.1 µM [inhibitor, partial curve, poor fit]",
COc1ccc(-c2nnn(CC(=O)NC3CCCc4ccccc43)n2)cc1OC (configuration not stated),"inconclusive: 17.8 µM [inhibitor, single point]",
CCC(=O)Nc1c2c(nn1-c1ccc(C)cc1C)CSC2,,inactive: 10.9%
O=C(COC(=O)c1ccccc1)c1ccc2c(c1)OCCO2,"inconclusive: 8.2 µM [activator, partial curve]",
NC(=O)N1OCC2COc3ccc4ccccc4c3C21 (configuration not stated),"inconclusive: 20.6 µM [inhibitor, partial curve, poor fit]",
COc1ccc(C2=NN(C(=O)CCC(=O)O)C(c3cccs3)C2)cc1 (configuration not stated),,inactive: 0%
O=C(O)CC12CC3CC(C1)CC(n1ncc(N4CCC5(CC4)OCCO5)c(Cl)c1=O)(C3)C2,active: 23.1 µM,
Cc1ccc(CNC(=O)c2ccc(OCC3CCCO3)cc2)cc1 (configuration not stated),"inconclusive: 14.6 µM [activator, partial curve]",
CC(C)(C)C(=O)CSc1nc2ccccc2o1,"inconclusive: 23.1 µM [activator, partial curve]",
CC(C)=CCN1CCN(Cc2cnc(C)s2)CC1CCO (configuration not stated),"inconclusive: 5.8 µM [activator, partial curve]",
COCCn1c(Cc2cccn2C)nnc1SCC(=O)Nc1nccs1,"inconclusive: 32.6 µM [activator, partial curve, poor fit]",
O=C(Nc1ccc(Br)cc1)c1ccc2ncsc2c1,"inconclusive: 2.31 µM [activator, full curve]",
Cc1cc(C)n(CCC(=O)N/N=C/c2ccc(O)cc2O)n1,"inconclusive: 20.6 µM [inhibitor, partial curve]",
Cc1ccc2occ(/C=N/NC(=O)c3ccc(O)cc3)c(=O)c2c1,"inconclusive: 20.6 µM [inhibitor, single point]",

SMILES,Potency,"activity change, negative = inhibition"
CCC1(c2ccc(Cl)cc2)NC(=S)N(c2ccccc2)N1 (configuration not stated),"inconclusive: 20.6 µM [activator, single point]",
N#C/C(=C\c1ccc(N2CCOCC2)o1)C(=O)NCC1CCCO1 (configuration not stated),"inconclusive: 20.6 µM [inhibitor, partial curve]",
COc1ccccc1CNC(=O)CN1C(=O)c2cccc(N)c2C1=O,"inconclusive: 14.6 µM [activator, partial curve]",
O=C1C=C(c2ccc3ncccc3c2)C[C@@H](c2ccc3c(c2)OCO3)C1,"inconclusive: 16.4 µM [inhibitor, partial curve, poor fit]",
O=C(c1cccs1)N1CCn2c1nc1ccccc12,"inconclusive: 8.2 µM [activator, partial curve]",
Cc1ccc(OCc2nnc(SCC(=O)Nc3cc(C)on3)n2C)cc1,,inactive: 0.738%
Cc1noc(C)c1CN1C(=O)NC(Cc2ccccc2)(Cc2ccccc2)C1=O,,inactive: 6.76%
O=C(c1ccc(Cl)cc1)C1CCCN(Cc2ccc(Oc3ncccn3)cc2)C1 (configuration not stated),"inconclusive: 18.3 µM [inhibitor, single point]",
CC1(C)CC(=O)C=C(NNC(=O)c2ccccc2O)C1,"inconclusive: 14.1 µM [activator, single point]",
COc1ccc(OC)c(S(=O)(=O)N2CCC(C(=O)Nc3ccc(C)c(C)c3)CC2)c1,"inconclusive: 12.6 µM [inhibitor, partial curve, poor fit]",
COc1ccc(C(=O)Nc2cc(OC)c(Cl)cc2Cl)cc1,,inactive: 24.8%
CC(C)N(C(=O)[C@H]1C[C@H](CC(=O)NC(C)(C)C)C(=O)N2CCc3c([nH]c4cc(-c5ccco5)ccc34)[C@]12C)C(C)C,,inactive: -17.7%
Fc1ccccc1/C=N/Nc1ccc(Cl)nn1,"inconclusive: 8.2 µM [activator, partial curve]",
Cn1c(-c2c(N)n(CCc3ccccc3)c3nc4ccccc4nc23)nc2ccccc21,active: 9.2 µM,
COc1ccc(Br)cc1C(=O)Nc1ccccc1N1CCN(C(=O)c2ccccc2)CC1,"inconclusive: 29.1 µM [inhibitor, single point]",
O=C(O)CN1CCN(CC(=O)O)CCN(CC(=O)O)CCN(CC(=O)O)CC1,"inconclusive: 31.6 µM [activator, partial curve, poor fit]",
CCN(C(=O)c1ccco1)c1nc(CC(=O)Nc2ccc(Cl)cc2)cs1,"inconclusive: 35.5 µM [inhibitor, single point]",
COc1ccc(/C=C2\OC(=O)c3c(OC)cccc32)cc1OC,"inconclusive: 3.16 µM [activator, full curve]",
O=C(Nc1nccs1)c1ccc(COc2c(F)c(F)cc(F)c2F)cc1,"inconclusive: 6.51 µM [activator, single point]",
Cc1ccc(-c2noc(-c3ccccc3C(=O)N3CCCC3)n2)cc1,"inconclusive: 9.2 µM [activator, partial curve]",
O=C(CSCc1ccccc1)N1CCc2ccccc21,"inconclusive: 5.8 µM [activator, partial curve]",
CCCCc1ncc(CN2CCC(n3nccc3NC(=O)c3ccccc3Cl)CC2)[nH]1,active: 10.3 µM,
Cc1c(Cl)cccc1NC(=S)N1CCN(c2ccc([N+](=O)[O-])cn2)CC1,"inconclusive: 29.1 µM [activator, partial curve, poor fit]",

# 12 structures already listed, sorted by SMILES length, rising:
SMILES,Potency,"activity change, negative = inhibition"
Fc1ccccc1/C=N/Nc1ccc(Cl)nn1,"inconclusive: 8.2 µM [activator, partial curve]",
CC1(C)CC(=O)C=C(NNC(=O)c2ccccc2O)C1,"inconclusive: 14.1 µM [activator, single point]",
CCC1(c2ccc(Cl)cc2)NC(=S)N(c2ccccc2)N1 (configuration not stated),"inconclusive: 20.6 µM [activator, single point]",
COc1ccc(/C=C2\OC(=O)c3c(OC)cccc32)cc1OC,"inconclusive: 3.16 µM [activator, full curve]",
COc1ccccc1CNC(=O)CN1C(=O)c2cccc(N)c2C1=O,"inconclusive: 14.6 µM [activator, partial curve]",
Cc1ccc(OCc2nnc(SCC(=O)Nc3cc(C)on3)n2C)cc1,,inactive: 0.738%
O=C(Nc1nccs1)c1ccc(COc2c(F)c(F)cc(F)c2F)cc1,"inconclusive: 6.51 µM [activator, single point]",
O=C(O)CN1CCN(CC(=O)O)CCN(CC(=O)O)CCN(CC(=O)O)CC1,"inconclusive: 31.6 µM [activator, partial curve, poor fit]",
CCCCc1ncc(CN2CCC(n3nccc3NC(=O)c3ccccc3Cl)CC2)[nH]1,active: 10.3 µM,
Cn1c(-c2c(N)n(CCc3ccccc3)c3nc4ccccc4nc23)nc2ccccc21,active: 9.2 µM,
COc1ccc(OC)c(S(=O)(=O)N2CCC(C(=O)Nc3ccc(C)c(C)c3)CC2)c1,"inconclusive: 12.6 µM [inhibitor, partial curve, poor fit]",
CC(C)N(C(=O)[C@H]1C[C@H](CC(=O)NC(C)(C)C)C(=O)N2CCc3c([nH]c4cc(-c5ccco5)ccc34)[C@]12C)C(C)C,,inactive: -17.7%

# Continued.

SMILES,Potency,"activity change, negative = inhibition"
CC(C)(C)c1ccc(OCc2ccc(C(=O)NCc3cccnc3)o2)cc1,"inconclusive: 3.66 µM [activator, single point]",
O=C(Nc1cccc(C(F)(F)F)c1)c1cc(S(=O)(=O)N2CCCCC2)ccc1N1CCOCC1,"inconclusive: 16.4 µM [inhibitor, single point]",
O=C(O)/C=C\C(=O)Nc1ccc(Oc2ccc(Br)cc2)cc1,,inactive: 3.01%
CC(C)[C@H](NC(=O)NCCc1ccccc1)C(=O)O,"inconclusive: 29.1 µM [activator, partial curve, poor fit]",
COc1ccc(-c2cc3nc(C)cc(-c4ccc(OC)cc4)n3n2)cc1,,inactive: 0.701%
CC(C)Oc1ccccc1C1NC(=O)CCC1[N+](=O)[O-] (configuration not stated),"inconclusive: 29.1 µM [inhibitor, partial curve, poor fit]",
CN(CC(=O)Nc1ccc(F)cc1)C(=O)COc1ccccc1Cc1ccccc1,"inconclusive: 29.1 µM [inhibitor, single point]",
CCOC(=O)CCc1c(C)c2ccc(OCC(=O)N(CC)CC)c(C)c2oc1=O,active: 18.4 µM,
CCn1c(Cc2ccccc2)nnc1SCC(=O)NC1CC1,"inconclusive: 29.1 µM [activator, single point]",
CS(=O)(=O)Nc1ccc(C(=O)NCCc2ccccc2)cc1,"inconclusive: 11.6 µM [activator, partial curve]",
O=C(O)c1cccc(S(=O)(=O)Nc2ccc([N+](=O)[O-])cc2O)c1,,inactive: -9.11%
Cc1ccc(S(=O)(=O)N(CCO)Cc2cc3ccc(C)c(C)c3[nH]c2=O)cc1,"inconclusive: 23.1 µM [inhibitor, single point]",
O=C(CCCCCNC(=O)c1ccccc1)N/N=C/c1ccccc1O,"inconclusive: 20.6 µM [activator, single point]",
CC(NC(=O)COC(=O)CNC(=O)c1ccc(-c2ccccc2)cc1)c1ccccc1 (configuration not stated),,inactive: 7.43%
CC(Oc1ccc(NC(=O)c2ccco2)cc1)C(=O)N1c2ccccc2CC1C (configuration not stated),"inconclusive: 20.6 µM [inhibitor, partial curve, poor fit]",
CSc1nnc(Cn2c(=O)sc3ccccc32)n1-c1ccccc1,,inactive: -2.59%
O=c1c2ccccc2nc(SCc2ccccc2)n1Cc1ccco1,"inconclusive: 14.6 µM [inhibitor, partial curve]",
C/C(=N/OCO/N=C(\C)c1ccccc1)c1ccccc1,"inconclusive: 20.6 µM [activator, partial curve, poor fit]",
CCOC(=O)c1cnc2c(OC)cccc2c1N1CCN(c2ccccn2)CC1,"inconclusive: 29.1 µM [inhibitor, single point]",
N#Cc1ccc(COn2nnc3ccccc32)cc1,"inconclusive: 29.1 µM [activator, single point]",
COc1ccc(NC(C)=O)cc1NC(C)C(=O)Nc1ccc(F)cc1 (configuration not stated),,inactive: -0.225%
